The list shows only some results of the screen, not a fair sample: it is rich in T/C values a quarter to a half above the control, in often repeated tests (any T/C) and in doses without a T/C. Other doses and runs of a compound stand elsewhere. T/C gives the treated animals as a percentage of the vehicle group. Some T/C values are followed by the survivors on the day toxicity was checked, most often the fifth; without a count, all were alive then. Schedules are NCI's codes, taken here to give the interval after Q, in days (D) or hours (H), and the number of doses after X. Some doses have a count of surviving animals in place of a T/C: the source holds a T/C of zero for them, seemingly a mark for toxic or unscored doses. Some survivor counts are full or nearly so, which does not show that the dose was tolerated: the source hardly ever lists a survival T/C far under the control, and the zero likely stands for such cases as well. Counts of survivors are from the toxicity check (mostly the fifth day) where no day follows; animals may have died later. Where survival is the endpoint, this PubChem deposit counts one and a half times the control or more as active, and values a quarter to a half above the control carry no call in these data; other NCI protocols may use other cut-offs. Some doses were run more than once; the values are given in rising order.
Test system: BDF1 mice, s.c. Lewis lung carcinoma, T/C %
Test: NCI In Vivo Anticancer Drug Screen. Data for tumor model Lewis Lung Carcinoma (subcutaneous) in B6D2F1 (BDF1) mice
Summary of the method: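 First, mice carry a transplantable tumor. Next, groups receive either compound or vehicle. Finally, survival or tumor dimensions in the dosed animals are divided by the corresponding control figure.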

[1] = T/C endpoint: median survival time, dose: 6.25 mg/kg/injection, schedule: Q01DX009 (ip), vehicle: saline with Tween-80, higher T/C = longer survival
[2] = T/C endpoint: median survival time, dose: 12.5 mg/kg/injection, schedule: Q01DX009 (ip), vehicle: saline with Tween-80, higher T/C = longer survival
[3] = T/C endpoint: median survival time, dose: 25.0 mg/kg/injection, schedule: Q01DX005 (ip), vehicle: saline with Tween-80, higher T/C = longer survival
[4] = T/C endpoint: median survival time, dose: 50.0 mg/kg/injection, schedule: Q01DX005 (ip), vehicle: saline with Tween-80, higher T/C = longer survival
[5] = T/C endpoint: median survival time, dose: 100.0 mg/kg/injection, schedule: Q01DX005 (ip), vehicle: saline with Tween-80, higher T/C = longer survival
[6] = T/C endpoint: median survival time, dose: 200.0 mg/kg/injection, schedule: Q01DX005 (ip), vehicle: saline with Tween-80, higher T/C = longer survival
[7] = T/C endpoint: median survival time, dose: 60.0 mg/kg/injection, schedule: Q04DX003 (ip), vehicle: saline, higher T/C = longer survival

COc1ccc(-c2cc(=O)c3c(O)cc(OC)cc3o2)cc1
survivor count (T/C endpoint: mean tumor weight, dose: 220.0 mg/kg/injection, schedule: Q01DX011 (ip), vehicle: saline, higher T/C = larger tumour): 2 of 4

Cc1cc(O)c2cc3c(O)c(O)ccc3cc2c1
survivor count (T/C endpoint: mean tumor weight, dose: 8.0 mg/kg/injection, schedule: Q01DX011 (ip), vehicle: saline, higher T/C = larger tumour): 0 of 6

COc1cc(C=Nc2ccc(-n3ccnc3C)cc2)ccc1N(CCCl)CCCl
survivor count (T/C endpoint: median survival time, dose: 20.0 mg/kg/injection, schedule: Q01DX009 (ip), vehicle: Klucel (hydroxypropylcellulose) (HPC), higher T/C = longer survival): 10 of 10

O=NN(CCF)C(=O)NC1CCSc2ccccc21 (centres undefined)
survivor count (T/C endpoint: median survival time, dose: 36.0 mg/kg/injection, schedule: Q01DX001 (ip), vehicle: saline with Tween-80, higher T/C = longer survival): 7 of 8 on day 11

CC1OC(O[C@@H]2C=C3CC[C@@H]4[C@H](CC[C@]5(C)[C@@H](c6ccc(=O)oc6)CC[C@]45O)[C@@]3(C)CC2)C(O)C(OC2OC(CO)C(O)C(O)C2O)C1O (some centres undefined)
survivor count (T/C endpoint: mean tumor weight, dose: 10.0 mg/kg/injection, schedule: Q01DX011 (ip), vehicle: carboxymethylcellulose (CMC), higher T/C = larger tumour): 3 of 6
survivor count (T/C endpoint: mean tumor weight, dose: 20.0 mg/kg/injection, schedule: Q01DX011 (ip), vehicle: carboxymethylcellulose (CMC), higher T/C = larger tumour): 3 of 6
survivor count (T/C endpoint: mean tumor weight, dose: 40.0 mg/kg/injection, schedule: Q01DX011 (ip), vehicle: carboxymethylcellulose (CMC), higher T/C = larger tumour): 0 of 6

COc1cc(NC(=O)CN(CCCl)CCCl)cc(OC)c1OC
survivor count (T/C endpoint: median survival time, dose: 400.0 mg/kg/injection, schedule: Q01DX009 (ip), vehicle: saline with Tween-80, higher T/C = longer survival): 9 of 10

CC(C)=CC(=O)OCC[N+](C)(C)C
survivor count (T/C endpoint: median survival time, dose: 6.25 mg/kg/injection, schedule: Q01DX009 (ip), vehicle: saline, higher T/C = longer survival): 10 of 10
survivor count (T/C endpoint: median survival time, dose: 75.0 mg/kg/injection, schedule: Q01DX009 (ip), vehicle: saline, higher T/C = longer survival): 0 of 10
survivor count (T/C endpoint: median survival time, dose: 150.0 mg/kg/injection, schedule: Q01DX009 (ip), vehicle: saline, higher T/C = longer survival): 0 of 10
survivor count (T/C endpoint: median survival time, dose: 300.0 mg/kg/injection, schedule: Q01DX009 (ip), vehicle: saline, higher T/C = longer survival): 0 of 10

CCOC(=O)[C@H]1CCC[C@@H](NC(=O)N(CCCl)N=O)C1
T/C (T/C endpoint: median tumor weight (est.), dose: 13.0 mg/kg/injection, schedule: Q01DX001 (ip), vehicle: gum acacia, evaluated on day 19, higher T/C = larger tumour): 130 % of control [7 of 10 alive on day 19]
survivor count (T/C endpoint: median tumor weight (est.), dose: 45.0 mg/kg/injection, schedule: Q01DX001 (ip), vehicle: gum acacia, higher T/C = larger tumour): 2 of 10 on day 19
survivor count (T/C endpoint: median tumor weight (est.), dose: 67.0 mg/kg/injection, schedule: Q01DX001 (ip), vehicle: gum acacia, higher T/C = larger tumour): 0 of 10 on day 19

COc1ccccc1NC(=O)N(CCCl)N=O
survivor count (T/C endpoint: median survival time, dose: 3.12 mg/kg/injection, schedule: Q01DX009 (ip), vehicle: saline with Tween-80, higher T/C = longer survival): 10 of 10
survivor count [1]: 10 of 10
survivor count [2]: 10 of 10
survivor count (T/C endpoint: median survival time, dose: 25.0 mg/kg/injection, schedule: Q01DX009 (ip), vehicle: saline with Tween-80, higher T/C = longer survival): 10 of 10

CNNCc1ccc(C(=O)NC(C)C)cc1
survivor count (T/C endpoint: median survival time, dose: 100.0 mg/kg/injection, schedule: Q08HX024 (ip), vehicle: saline, higher T/C = longer survival): 9 of 10
survivor count (T/C endpoint: median survival time, dose: 200.0 mg/kg/injection, schedule: Q08HX024 (ip), vehicle: saline, higher T/C = longer survival): 9 of 10

CC(C)NC(=O)c1ccc(N/N=[N+](/C)[O-])cc1
T/C [3]: 132 % of control
T/C [4]: 138 % of control
survivor count [5]: 10 of 10
T/C [6]: 126 % of control
survivor count (T/C endpoint: median survival time, dose: 400.0 mg/kg/injection, schedule: Q01DX005 (ip), vehicle: saline with Tween-80, higher T/C = longer survival): 10 of 10

NC(=O)c1csc(C2OC(CO)C(O)C2O)n1 (centres undefined)
T/C (T/C endpoint: median survival time, dose: 9.38 mg/kg/injection, schedule: Q01DX009 (ip), vehicle: water, evaluated on day 56, higher T/C = longer survival): 139 % of control
T/C (T/C endpoint: median survival time, dose: 9.38 mg/kg/injection, schedule: Q01DX009 (ip), vehicle: water, evaluated on day 70, higher T/C = longer survival): 141 % of control

COC(=O)[C@@H]1c2cc3c(c(O)c2[C@@H](OC2OC(C)C(OC)C(C)(OC)C2OC)C[C@]1(C)O)C(=O)c1c(O)cc2c(c1C3=O)O[C@H]1O[C@]2(C)[C@H](O)[C@@H](N(C)C)[C@@H]1O (some centres undefined)
survivor count (T/C endpoint: mean tumor weight, dose: 1.5 mg/kg/injection, schedule: Q01DX008 (ip), vehicle: saline, higher T/C = larger tumour): 0 of 6
survivor count (T/C endpoint: mean tumor weight, dose: 2.0 mg/kg/injection, schedule: Q01DX008 (ip), vehicle: saline, higher T/C = larger tumour): 0 of 6

COc1cc([C@@H]2c3cc4c(cc3[C@@H](OC3OC5COC(C)OC5C(O)C3O)[C@H]3COC(=O)[C@H]23)OCO4)cc(OC)c1O (some centres undefined)
T/C (T/C endpoint: median survival time, dose: 8.0 mg/kg/injection, schedule: Q01DX009 (ip), vehicle: saline, higher T/C = longer survival): 130 % of control
T/C (T/C endpoint: median survival time, dose: 12.0 mg/kg/injection, schedule: Q01DX009 (ip), vehicle: saline, higher T/C = longer survival): 135 % of control
survivor count (T/C endpoint: median survival time, dose: 18.0 mg/kg/injection, schedule: Q01DX009 (ip), vehicle: saline, higher T/C = longer survival): 9 of 10 on day 10
T/C (T/C endpoint: median survival time, dose: 20.0 mg/kg/injection, schedule: Q04DX003 (ip), vehicle: saline, higher T/C = longer survival): 136 % of control
T/C (T/C endpoint: median survival time, dose: 40.0 mg/kg/injection, schedule: Q04DX003 (ip), vehicle: saline, higher T/C = longer survival): 134 and 136 % of control
T/C (T/C endpoint: median survival time, dose: 40.0 mg/kg/injection, schedule: Q04DX003 (sc), vehicle: saline, higher T/C = longer survival): 138 % of control
T/C [7]: 147 % of control
survivor count [7]: 10 of 10 on day 10
survivor count (T/C endpoint: median survival time, dose: 60.0 mg/kg/injection, schedule: Q04DX003 (sc), vehicle: saline, higher T/C = longer survival): 10 of 10 on day 10
survivor count (T/C endpoint: median survival time, dose: 80.0 mg/kg/injection, schedule: Q04DX003 (ip), vehicle: saline, higher T/C = longer survival): 7 of 10 on day 10
survivor count (T/C endpoint: median survival time, dose: 80.0 mg/kg/injection, schedule: Q04DX003 (sc), vehicle: saline, higher T/C = longer survival): 8 of 10 on day 10

CC1=C(/C=C/C(C)=C/C=C/C(C)=C/CO)C(C)(C)CCC1
survivor count (T/C endpoint: median survival time, dose: 6.25 mg/kg/injection, schedule: Q01DX005 (ip), vehicle: saline with Tween-80, higher T/C = longer survival): 10 of 10
T/C (T/C endpoint: median survival time, dose: 8.0 mg/kg/injection, schedule: Q01DX005 (ip), vehicle: saline with Tween-80, higher T/C = longer survival): 127 % of control
survivor count [3]: 10 of 10
T/C [4]: 141 % of control
survivor count [4]: 10 of 10
survivor count (T/C endpoint: median survival time, dose: 75.0 mg/kg/injection, schedule: Q01DX005 (ip), vehicle: saline with Tween-80, higher T/C = longer survival): 10 of 10
survivor count [5]: 3 of 10
survivor count [6]: 0 of 10

CC[C@@]1(O)C(=O)OCc2c1cc1n(c2=O)Cc2cc3c(OC)cccc3nc2-1
T/C (T/C endpoint: median survival time, dose: 0.06 mg/kg/injection, schedule: Q01DX009 (ip), vehicle: Klucel (hydroxypropylcellulose) (HPC), higher T/C = longer survival): 126 % of control

CNC(=S)N/N=C/c1ccc([N+](=O)[O-])s1
survivor count [1]: 10 of 10
T/C [2]: 127 % of control

CCOC(=O)C(CC(C)C)NC(=O)C(Cc1ccc(N(CCCl)CCCl)cc1)NC(C)=O (centres undefined)
survivor count (T/C endpoint: median survival time, dose: 32.0 mg/kg/injection, schedule: Q01DX009 (ip), vehicle: saline with Tween-80, higher T/C = longer survival): 10 of 10
survivor count (T/C endpoint: median survival time, dose: 64.0 mg/kg/injection, schedule: Q01DX009 (ip), vehicle: saline with Tween-80, higher T/C = longer survival): 7 of 10

C/C=C/c1cc2n(c1)C(=O)c1cc(OC3OC(C)C(NC)C(C)(O)C3O)c(C)c(O)c1NC2O (centres undefined)
survivor count (T/C endpoint: median survival time, dose: 32.0 micrograms/kg/injection, schedule: Q04DX003 (ip), vehicle: saline, higher T/C = longer survival): 10 of 10
survivor count (T/C endpoint: median survival time, dose: 64.0 micrograms/kg/injection, schedule: Q04DX003 (ip), vehicle: saline, higher T/C = longer survival): 1 of 10

CN(C)Cc1c[nH]c2ccccc12
survivor count (T/C endpoint: mean tumor weight, dose: 180.0 mg/kg/injection, schedule: Q01DX011 (ip), vehicle: carboxymethylcellulose (CMC), higher T/C = larger tumour): 0 of 6
survivor count (T/C endpoint: mean tumor weight, dose: 360.0 mg/kg/injection, schedule: Q01DX011 (ip), vehicle: carboxymethylcellulose (CMC), higher T/C = larger tumour): 0 of 6

CC(=O)NNC(=O)c1ccccn1
survivor count (T/C endpoint: median survival time, dose: 50.0 mg/kg/injection, schedule: Q01DX009 (ip), vehicle: Klucel (hydroxypropylcellulose) (HPC), higher T/C = longer survival): 10 of 10
survivor count (T/C endpoint: median survival time, dose: 400.0 mg/kg/injection, schedule: Q01DX009 (ip), vehicle: Klucel (hydroxypropylcellulose) (HPC), higher T/C = longer survival): 0 of 10

C=C[C@]1(C)C=C2CC[C@@H]3[C@](C)(CCC[C@@]3(C)C(=O)O)[C@H]2CC1
survivor count (T/C endpoint: mean tumor weight, dose: 500.0 mg/kg/injection, schedule: Q01DX011 (ip), vehicle: saline, higher T/C = larger tumour): 0 of 6

O=C1c2ccccc2CCc2ccccc21
T/C (T/C endpoint: mean tumor weight, dose: 300.0 mg/kg/injection, schedule: Q01DX011 (ip), vehicle: other, evaluated on day 12, higher T/C = larger tumour): 131 % of control [5 of 6 alive]

CCCCSc1nc(N)nc2c1ncn2CC(C)CC (centres undefined)
survivor count (T/C endpoint: mean tumor weight, dose: 600.0 mg/kg/injection, schedule: Q01DX011 (ip), vehicle: other, higher T/C = larger tumour): 2 of 6

Cc1cc(N(CCCl)CCCl)ccc1C=Nc1cccnc1
survivor count (T/C endpoint: median survival time, dose: 200.0 mg/kg/injection, schedule: Q01DX009 (ip), vehicle: saline with Tween-80, higher T/C = longer survival): 10 of 10

— PubChem BioAssay AID270 (DTP/NCI, 2004)
